Source: PMC12700831
These are yes or no findings as the source states them, for the method shown. In cells and extracts the contact can be indirect. A yes stands for co-enrichment or nearness to the bait. Other partners may have been found.

Protein sequences, listed by entry. Tags and fused reporters are not part of them.
UniProt Q5TEA3: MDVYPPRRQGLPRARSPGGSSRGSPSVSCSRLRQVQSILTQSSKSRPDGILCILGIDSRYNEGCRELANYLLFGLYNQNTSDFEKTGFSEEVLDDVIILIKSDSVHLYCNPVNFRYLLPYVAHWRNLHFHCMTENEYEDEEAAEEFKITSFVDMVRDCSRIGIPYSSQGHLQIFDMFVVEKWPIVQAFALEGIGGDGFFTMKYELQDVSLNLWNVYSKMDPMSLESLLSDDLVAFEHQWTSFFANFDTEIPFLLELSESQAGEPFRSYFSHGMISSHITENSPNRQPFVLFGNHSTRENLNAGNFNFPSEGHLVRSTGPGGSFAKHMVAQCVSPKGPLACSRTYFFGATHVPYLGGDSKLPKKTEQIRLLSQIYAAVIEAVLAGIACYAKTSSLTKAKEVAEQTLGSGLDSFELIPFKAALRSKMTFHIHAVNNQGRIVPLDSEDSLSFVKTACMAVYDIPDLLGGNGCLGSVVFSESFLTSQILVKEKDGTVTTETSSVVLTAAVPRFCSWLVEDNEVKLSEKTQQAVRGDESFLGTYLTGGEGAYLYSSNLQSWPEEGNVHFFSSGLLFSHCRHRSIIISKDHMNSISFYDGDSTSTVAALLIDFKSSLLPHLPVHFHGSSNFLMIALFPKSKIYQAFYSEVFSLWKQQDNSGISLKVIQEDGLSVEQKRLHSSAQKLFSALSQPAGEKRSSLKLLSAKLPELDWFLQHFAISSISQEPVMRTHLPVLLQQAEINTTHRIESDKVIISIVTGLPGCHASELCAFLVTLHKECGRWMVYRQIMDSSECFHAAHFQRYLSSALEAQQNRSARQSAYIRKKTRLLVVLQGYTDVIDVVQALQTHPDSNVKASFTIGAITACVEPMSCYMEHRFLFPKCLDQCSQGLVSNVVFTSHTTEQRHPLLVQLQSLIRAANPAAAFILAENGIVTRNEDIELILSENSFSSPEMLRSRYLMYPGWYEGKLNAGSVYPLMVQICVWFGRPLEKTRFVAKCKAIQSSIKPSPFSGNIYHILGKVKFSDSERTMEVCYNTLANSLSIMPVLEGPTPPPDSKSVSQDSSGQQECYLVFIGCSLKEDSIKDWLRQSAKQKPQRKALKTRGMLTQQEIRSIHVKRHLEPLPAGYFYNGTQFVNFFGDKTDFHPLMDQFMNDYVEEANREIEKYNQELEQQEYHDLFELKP

B1: endogenous Tetrahymena Shulin (protein, UniProt Q22YU3 1-1200)
chain: MFNFFSSANINQNIPKYSVNDFVFRLKKIEKIVVKEGLDGFLLINGVDSRENTEYVKLTNWLFLGNSGLEIEENEYLNQIYSDMIVLIKKGTTHIFIDPEALNSLQTLIYSIPNVDVFCPTEKQYEDKDEMELLKMAFFLRVMKPTKKVGILLGQKDKGKINSIEKWPLIQSYGLEELGVGFFSMNHEVVDLTLRLNAVYKNYDKFFVSKLIYVVAKRLTGHFNSAAGQLGDMKMHKRNLATESQLTEIFRDTYEIEEISKWVQIRGVNAALPKPRVLFGKNTSADCSKEPSVAPLKDLKYSETFHSFHATFETFDLRTCLRAARTYFLAKGVKEERNLITLNDDEGVPQGYELNIDENQQYKDQDFLANLYLSIIIGFNEVMQLITKDYKNMTEEFIQDYIFQKVSKVYAGFQIPESEITLDKIQIILKAYNSFGEEVKIDFKDTISFKLTPYFFMVRIEQKNIKSQILNNTVLGSLVFAESFILQEGCYLLLTKEIPYFDLWNCQNDYSEKIEKMKKRILWEPLGKQISDELPKNRIFVQTGRKSNYGFDIPIMQASYYMHELGLRIETQRLGWFILFFKEMKEIQITQKMNHTWLIFKVDSNITFNSISKDTIALEFTGDALEQSFFKIKNYFEENQIKYEYQVDIPAIFQESQIAKKQILNQQSQGQKLITMNSIQNEQFFISYIESKQLMILNQMKDLKLSAYKNLYEQMQISQAITPVENHIGVILVNGSYCSGKRKFAENLIRFGSDNNLRLHLYKFDLNEMSELTEKSYLSGLLKFASEKKIQNTDVIVASVPHFINTKILIDYFSKSEKISNAFYIRTIATKININNIYSNFNKNPVNNVFTYGVEGYSQFLLLDTYNNYDADVNALNKTLSGVLPGAKIYKIMNNILNPALAKDILTSITFISEQNNLNRLKYSVQYDLLTSNGPSSVVFIPFKLPILREKIRDLIYKKILQNGNQTLVDTIEAEQKIAEFKELNKNSKDPLMIEIIKLKEKIEIQNAQTSDQAIKIDYVKGILRYDSKLKEGLEEITITPNYFIERTVKGVDAKEFTEELNGVSFKNVKYTGITNSIINDMGFVFAGKNLNKEKLLELLYKLVKPLNKQKLRQRKDLTEEEIVDIQFRNRGEGLENGEFYDGQFWRNIQGLILPHHPKKDEFIEEYLKQEEVRINQINEQLQQEWETWKQVYDKIHLDK
B2: LC3/NME9 (protein, UniProt Q86XW9 1-330)
chain: MGSRKKEIALQVNISTQELWEEMLSSKGLTVVDVYQGWCGPCKPVVSLFQKMRIEVGLDLLHFALAEADRLDVLEKYRGKCEPTFLFYAGGELVAVVRGANAPLLQKTILDQLEAEKKVLAEGRERKVIKDEALSDEDECVSHGKNNGEDEDMVSSERTCTLAIIKPDAVAHGKTDEIIMKIQEAGFEILTNEERTMTEAEVRLFYQHKAGEEAFEKLVHHMCSGPSHLLILTRTEGFEDVVTTWRTVMGPRDPNVARREQPESLRAQYGTEMPFNAVHGSRDREDADRELALLFPSLKFSDKDTEAPQGGEAEATAGPTEALCFPEDVD

Tests used:
[1] = target: Tetrahymena thermophila Arl3-Q70L (2×Strep, Sf9) (T. thermophila); assay: affinity purification with mass spectrometry; Strep pulldown with recombinant Arl3-Q70L as bait from lysates of Tetrahymena cells undergoing ciliary regeneration after deciliation; eluates by MS and silver-stained gel; only the target purified
[2] = target: DNAAF9 (endogenous, human airway epithelial cells) (human (endogenous in HAECs)) (UniProt Q5TEA3); assay: affinity purification with mass spectrometry; endogenous DNAAF9 immunoprecipitated from HAEC whole-cell lysates at ALI day 19 (ECs) and day 45 (MCs), anti-DNAAF9 against isotype-matched IgG, protein A/G beads, TMT labeling and MS

Binder | binding [1] | binding [2]
B1 | binds | –
B2 | – | binds
